Laboratory results from the supplement of paper PMC7877785.
± gives the uncertainty stated by the source. Many of these values have a large error.

Test: self-splicing fitness, log relative to wild type (ln ratio); higher = more splicing; Tetrahymena group I intron in knt gene, E. coli kanamycin selection, DiMSum; sequences stand for … in CUCUCU…GGAGGGAAAAGUUAUCAGGCAUGCACCUGGUAGCUAGUCUUUAAACCAAUAGAUUGCAUCGGUUUAAAAGGCAAGACCGUCAAAUUGCGGGAAAGGGGUCAACAGCCGUUCAGUACCAAGUCUCAGGGGAAACUUUGAGAUGGCCUUGCAAAGGGUAUGGUAAUAAGCUGACGGACAUGGUCCUAACCACGCAGCCAAGUCCUAAGUCAACAGAUCUUCUGUUGAUAUGGAUGCAGUUCACAGACUAAAUGUCGGUCGGGGAAGAUGUAUUCUUCUCAUAAGAUAUAGUCGGACCUCUCCUUAAUGGGAGCUAGCGGAUGAAGUGAUGCAACACUGGAGCCGCUGGGAACUAAUUUGUAUGCGAAAGUAUAUUGAUUAGUUUUGGAGUACUCGUGGUCG
Method in brief: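 Colonies from six replicate transformations of E. coli BL21(DE3) were pooled and amplicon-sequenced on an Illumina HiSeq 2500. The library placed an intron with all eight P1ex-region nucleotides randomised inside the knt kanamycin-resistance gene on pET-22b(+), and cells grew overnight at 37°C or 30°C on LB agar with or without 25 μg/mL kanamycin (plus 100 μg/mL carbenicillin, 50 μM IPTG, 0.2% rhamnose). Fitness is the DiMSum error-weighted combination of wild-type-normalised replicate fold changes, kanamycin versus none.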

| Sequence | self-splicing fitness (ln) (30 °C) | self-splicing fitness (ln) (37 °C) |
| --- | --- | --- |
| GUUGAGCAAUAUUACGCCCG | -2.7 ± 0.49 | -0.708 ± 0.71 |
| GGGCAGCAAUAUUACGGAGA | -4.44 ± 0.46 | -2.56 ± 0.22 |
| CCGAAGCAAUAUUACGAAGA | – | -2.87 ± 1 |
| GGCGAGCAAUAUUACGUGCC | -3.81 ± 1 | – |
| GGCCAGCAAUAUUACGCGCU | -2.62 ± 0.62 | – |
| CUCUAGCAAUAUUACGCCAG | – | -1.87 ± 0.57 |
| UGAGAGCAAUAUUACGACUG | -2.92 ± 0.55 | -1.27 ± 0.68 |
| UUGGAGCAAUAUUACGGCCC | – | -1.9 ± 0.69 |
| CGGUAGCAAUAUUACGGGGC | -4.13 ± 0.61 | -2.39 ± 0.34 |
| GUCAAGCAAUAUUACGUCCG | -5.1 ± 0.71 | – |
| AGAGAGCAAUAUUACGAGUC | -4.42 ± 1 | – |
| CUAAAGCAAUAUUACGACAC | -3.21 ± 0.5 | – |
| GUUUAGCAAUAUUACGCUUA | -1.24 ± 0.15 | -0.129 ± 0.12 |
| AAUCAGCAAUAUUACGCAUU | -1.1 ± 0.072 | -0.498 ± 0.086 |
| CUAGAGCAAUAUUACGGACU | -2.28 ± 0.51 | -1.47 ± 1.2 |
| UUCGAGCAAUAUUACGCAAC | – | -3.64 ± 1 |
| UAAGAGCAAUAUUACGUUGA | -2.94 ± 0.53 | – |
| CUGUAGCAAUAUUACGGCAC | -1.7 ± 0.5 | -0.693 ± 0.58 |
| UUGAAGCAAUAUUACGCAGU | -1.2 ± 0.3 | -1.54 ± 0.32 |
| UGUGAGCAAUAUUACGUCAU | -4.4 ± 1 | – |
| AGGCAGCAAUAUUACGAGCC | -2 ± 0.14 | -1.4 ± 0.21 |
| CGGAAGCAAUAUUACGAGAU | -4.14 ± 0.51 | – |
| AAUGAGCAAUAUUACGGACC | -3.42 ± 0.74 | – |
| UCCGAGCAAUAUUACGCAAU | -5.67 ± 1 | – |

| Sequence | self-splicing fitness (ln) (30 °C) | self-splicing fitness (ln) (37 °C) |
| --- | --- | --- |
| UAUCAGCAAUAUUACGGAAC | – | -0.398 ± 0.57 |
| GUGGAGCAAUAUUACGGGGG | – | -2.6 ± 0.61 |
| CUCGAGCAAUAUUACGUGCC | – | -3.14 ± 0.53 |
| CUGGAGCAAUAUUACGCUAA | -4.8 ± 1 | -2.76 ± 0.62 |
| UUAAAGCAAUAUUACGCCAC | -3.27 ± 1 | -4.13 ± 1 |
| UUUGAGCAAUAUUACGAGAA | -2.57 ± 0.78 | – |
| CAGGAGCAAUAUUACGAUCU | -2.93 ± 0.63 | – |
| CUUUAGCAAUAUUACGAUUA | -3.5 ± 1 | – |
| UGAGAGCAAUAUUACGCUGU | -3.34 ± 1.1 | -2.2 ± 0.78 |
| ACCAAGCAAUAUUACGUAAC | -3.94 ± 0.17 | -2.19 ± 0.16 |
| UAUUAGCAAUAUUACGCAAC | -1.55 ± 1.2 | – |
| CGAGAGCAAUAUUACGACAA | – | -3.17 ± 1 |
| UCUCAGCAAUAUUACGCAGA | – | -2.84 ± 0.61 |
| GGGGAGCAAUAUUACGUUGU | -3.46 ± 0.53 | – |
| AACGAGCAAUAUUACGAAAA | -3.39 ± 1 | -1.18 ± 0.92 |
| CGUUAGCAAUAUUACGCACG | – | -2.63 ± 0.54 |
| GUAGAGCAAUAUUACGGCAG | -2.86 ± 0.62 | -1.98 ± 0.57 |
| UAGGAGCAAUAUUACGCGGU | -1.52 ± 0.23 | -2.13 ± 0.51 |
| CUUCAGCAAUAUUACGGGCC | – | -1.29 ± 0.61 |
| AAGGAGCAAUAUUACGUAAA | -2.81 ± 0.32 | -0.663 ± 0.24 |
| UCAUAGCAAUAUUACGCCCU | – | -1.83 ± 0.58 |
| UCUCAGCAAUAUUACGGCCU | -2.44 ± 0.78 | – |
| CUGGAGCAAUAUUACGCUGU | -4.32 ± 0.59 | – |
| ACGGAGCAAUAUUACGAUGU | -3.19 ± 0.2 | -2.52 ± 0.27 |

Reprinted at random: 4 records from the list, in no set order.

| Sequence | self-splicing fitness (ln) (30 °C) | self-splicing fitness (ln) (37 °C) |
| --- | --- | --- |
| UAUUAGCAAUAUUACGCAAC | -1.55 ± 1.2 | – |
| UCAUAGCAAUAUUACGCCCU | – | -1.83 ± 0.58 |
| ACCAAGCAAUAUUACGUAAC | -3.94 ± 0.17 | -2.19 ± 0.16 |
| UUAAAGCAAUAUUACGCCAC | -3.27 ± 1 | -4.13 ± 1 |

Following part

| Sequence | self-splicing fitness (ln) (30 °C) | self-splicing fitness (ln) (37 °C) |
| --- | --- | --- |
| AGGAAGCAAUAUUACGGGUC | -3 ± 0.32 | -2.31 ± 0.29 |
| GGGAAGCAAUAUUACGCAGC | -1.29 ± 0.14 | -1.12 ± 0.19 |
| UUUGAGCAAUAUUACGCUGC | – | -2.3 ± 1.1 |
| CAACAGCAAUAUUACGUCUA | -1.06 ± 0.053 | -0.786 ± 0.055 |
| ACAGAGCAAUAUUACGCUCC | -3.15 ± 0.64 | – |
| AGAGAGCAAUAUUACGGCCA | -3.48 ± 1.1 | -2 ± 0.78 |
| GGGCAGCAAUAUUACGAAUA | -3.07 ± 0.61 | – |
| CUGGAGCAAUAUUACGUGAG | -0.772 ± 0.049 | -0.213 ± 0.063 |
| GAAUAGCAAUAUUACGCAUG | -0.0618 ± 0.089 | -0.902 ± 0.091 |
| UUUUAGCAAUAUUACGUACA | -2.16 ± 0.15 | -0.143 ± 0.2 |
| UUUCAGCAAUAUUACGCCGA | -2.61 ± 0.51 | – |
| GCGCAGCAAUAUUACGGAGU | -2 ± 0.11 | -0.744 ± 0.13 |
| CCCGAGCAAUAUUACGCACG | -4.17 ± 1.1 | – |
| GUCAAGCAAUAUUACGGAGC | – | -0.707 ± 0.78 |
| GGGGAGCAAUAUUACGUGGG | – | -3.05 ± 0.74 |
| CCAGAGCAAUAUUACGAGAG | -2.95 ± 0.21 | -1.39 ± 0.23 |
| CUAUAGCAAUAUUACGGACC | -3.19 ± 0.61 | – |
| CCACAGCAAUAUUACGACCC | -4.02 ± 0.39 | -2.75 ± 0.53 |
| UCUUAGCAAUAUUACGCUAC | – | -2.72 ± 1.1 |
| CAUAAGCAAUAUUACGAUAC | -4.25 ± 0.52 | – |
| AGAUAGCAAUAUUACGCAUG | -1.58 ± 0.14 | -0.884 ± 0.14 |
| CCGGAGCAAUAUUACGCAAA | -2.73 ± 0.62 | – |
| CAUUAGCAAUAUUACGUAUG | -3.57 ± 0.2 | -2.9 ± 0.3 |
| AGAUAGCAAUAUUACGGACC | -0.504 ± 0.15 | -0.242 ± 0.12 |

A stretch from further up, as a working copy:

| Sequence | self-splicing fitness (ln) (30 °C) | self-splicing fitness (ln) (37 °C) |
| --- | --- | --- |
| AGGAAGCAAUAUUACGGGUC | -3 ± 0.32 | -2.31 ± 0.29 |
| GGGAAGCAAUAUUACGCAGC | -1.29 ± 0.14 | -1.12 ± 0.19 |

(listing goes on)

| Sequence | self-splicing fitness (ln) (30 °C) | self-splicing fitness (ln) (37 °C) |
| --- | --- | --- |
| AUGUAGCAAUAUUACGAGCC | -4.06 ± 0.52 | – |
| CCGUAGCAAUAUUACGACAC | – | -3.34 ± 0.52 |
| UUUUAGCAAUAUUACGUUUC | -3.61 ± 0.53 | -1.98 ± 1.1 |
| CGUUAGCAAUAUUACGAAUU | -3.23 ± 1 | – |
| UCGUAGCAAUAUUACGCCGC | – | -2.07 ± 1.1 |
| AUACAGCAAUAUUACGAUGG | -3.04 ± 0.18 | -2.35 ± 0.23 |
| UGGGAGCAAUAUUACGUAGA | – | -2.31 ± 1.1 |
| AUGGAGCAAUAUUACGACGA | -1.15 ± 0.61 | – |
| CGGGAGCAAUAUUACGCCCG | – | -0.722 ± 0.54 |
| GGAUAGCAAUAUUACGCAAC | -3.48 ± 0.75 | -1.88 ± 0.6 |
| GAAAAGCAAUAUUACGUACU | -0.864 ± 0.069 | -0.0522 ± 0.1 |
| CCGUAGCAAUAUUACGAAUC | -3.06 ± 0.8 | -0.928 ± 0.61 |
| GUUGAGCAAUAUUACGAGCC | – | -1.9 ± 0.79 |
| GGUGAGCAAUAUUACGGAGA | – | -0.778 ± 0.82 |
| GAUAAGCAAUAUUACGCAAC | -3.58 ± 0.53 | – |
| AUAGAGCAAUAUUACGAGAC | -3.19 ± 1.2 | -1.28 ± 0.57 |
| CUCGAGCAAUAUUACGUCAG | -3.41 ± 0.54 | – |
| UGCCAGCAAUAUUACGAGUG | -1.32 ± 0.064 | -0.537 ± 0.079 |
| UUUAAGCAAUAUUACGACAC | – | -2.15 ± 0.65 |
| GGAGAGCAAUAUUACGGACC | -2.09 ± 1.4 | – |
| UCUGAGCAAUAUUACGCCAG | -2.76 ± 0.54 | – |
| UUGUAGCAAUAUUACGCCAU | -3.75 ± 0.75 | -2.33 ± 0.52 |
